About 1,700 (0.47%) of roughly 360,000 compounds were called active. This list was built around the results that the source calls inconclusive (neither active nor inactive); the mix of calls is not that of the screen. The call rests on the fitted dose curve; in most records, active means well fitted inhibition curve with a large enough effect; inconclusive means small, poorly fitted or top-dose-only effect; inactive means no such curve, though single readings can be large or run the other way. Potencies beside an inconclusive call are fits to weak or partial responses and may not hold up.
target: Bifunctional 3'-5' exonuclease/ATP-dependent helicase WRN (Homo sapiens) (UniProt Q14191); assay: qHTS for Inhibitors of WRN Helicase; settings: WRN helicase unwinding, fluorescent forked duplex, kinetic; series mostly up to 114 µM; further: nearly all actives have a fitted effect of over 55% in size
Outline: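 Fluorescence dequenching readout, ex 525 nm/em 598 nm, kinetic mode: forked duplex DNA (100 nM final) with adjacent fluorophore and quencher unwound by WRN (20 nM final) with 2 mM ATP. Compound preincubation 15 min, room temperature.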
Potency means the concentration at half of the fitted maximal effect.

Amino acid sequences for entries named in this document (tags omitted).
UniProt Q14191, whole entry, looked up: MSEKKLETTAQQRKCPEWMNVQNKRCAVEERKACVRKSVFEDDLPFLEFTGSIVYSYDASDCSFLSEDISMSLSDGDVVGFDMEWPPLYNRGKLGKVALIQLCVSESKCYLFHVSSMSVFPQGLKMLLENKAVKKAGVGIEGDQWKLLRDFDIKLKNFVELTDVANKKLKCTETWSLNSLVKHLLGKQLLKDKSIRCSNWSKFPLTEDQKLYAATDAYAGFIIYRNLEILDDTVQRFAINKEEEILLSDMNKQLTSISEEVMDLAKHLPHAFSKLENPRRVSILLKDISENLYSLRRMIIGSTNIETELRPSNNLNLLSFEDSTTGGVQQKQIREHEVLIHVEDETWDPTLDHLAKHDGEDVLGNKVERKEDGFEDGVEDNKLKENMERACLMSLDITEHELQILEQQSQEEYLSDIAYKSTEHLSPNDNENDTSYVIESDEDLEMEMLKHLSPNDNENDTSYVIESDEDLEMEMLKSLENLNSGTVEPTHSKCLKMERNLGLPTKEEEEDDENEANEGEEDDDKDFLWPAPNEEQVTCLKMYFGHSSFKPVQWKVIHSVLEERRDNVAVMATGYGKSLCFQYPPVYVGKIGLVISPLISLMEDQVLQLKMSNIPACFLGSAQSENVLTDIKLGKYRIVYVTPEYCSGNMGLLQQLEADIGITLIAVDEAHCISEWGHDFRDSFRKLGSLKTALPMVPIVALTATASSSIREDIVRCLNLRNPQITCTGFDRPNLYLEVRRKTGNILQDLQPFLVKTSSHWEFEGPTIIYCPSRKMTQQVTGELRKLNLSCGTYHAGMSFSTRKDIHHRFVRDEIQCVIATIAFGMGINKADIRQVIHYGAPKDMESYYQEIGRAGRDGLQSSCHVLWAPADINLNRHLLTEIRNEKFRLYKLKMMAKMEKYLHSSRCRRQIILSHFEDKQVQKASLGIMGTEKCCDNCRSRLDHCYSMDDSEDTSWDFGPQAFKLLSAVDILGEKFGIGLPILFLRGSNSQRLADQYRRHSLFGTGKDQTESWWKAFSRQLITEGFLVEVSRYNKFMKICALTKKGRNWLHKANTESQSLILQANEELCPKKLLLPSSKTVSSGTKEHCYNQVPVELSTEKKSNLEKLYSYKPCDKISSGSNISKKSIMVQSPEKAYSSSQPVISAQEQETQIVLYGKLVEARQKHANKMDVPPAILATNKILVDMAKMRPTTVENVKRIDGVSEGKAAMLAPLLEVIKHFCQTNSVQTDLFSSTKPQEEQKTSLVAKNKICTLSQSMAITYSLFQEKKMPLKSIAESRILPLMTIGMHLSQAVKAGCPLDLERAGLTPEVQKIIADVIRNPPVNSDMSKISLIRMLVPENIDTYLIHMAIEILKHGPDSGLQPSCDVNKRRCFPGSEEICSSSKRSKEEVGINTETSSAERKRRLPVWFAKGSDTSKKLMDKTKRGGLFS

With `O=C(Nc1cccc([N+](=O)[O-])c1)c1ccc(CN2CCOCC2)cc1` as the compound, how does the Potency read?
The Potency was inconclusive: 12.6 µM [inhibitor, partial curve].

For `CCOC(=O)CNC(=O)CSc1nc(-c2ccccc2)ns1`, which Potency is on record?
The Potency was inconclusive: 89.1 µM [inhibitor, partial curve].

For `COCCn1c(=S)[nH]c2sc3c(c2c1=O)CCC(C)C3` (stereo unspecified), which Potency is on record?
Its Potency is inconclusive: 89.1 µM [inhibitor, single point].

How did the Potency turn out when `CCCCn1c(NC(=O)c2ccccc2)nc2ccccc21` was run?
The Potency was “inactive”.

How did the Potency turn out when `NC(=O)c1c(N)sc2c1CCCC2` was run?
The Potency was “inactive”.

For `CCc1ccc(S(=O)(=O)Nc2cc(SCC(=O)O)c(O)c3ccccc23)cc1`, which Potency is on record?
Its Potency is active: 44.7 µM.

With `CCN(CC)CCOC(=O)c1ccc(N/C=C(/C#N)c2nc(-c3ccc(OC)cc3)cs2)cc1` as the compound, how does the Potency read?
Its Potency is inconclusive: 5.62 µM [inhibitor, full curve, poor fit].

`CCC[n+]1c2ccccc2cc2ccccc21` was tested. Which Potency did it give?
Its Potency is inconclusive: 50.1 µM [inhibitor, partial curve].

Which Potency does the source give for `C=CCn1c(SCc2ccccc2F)nc2cc(C(=O)O)ccc2c1=O` here?
The Potency was “inactive”.

`Cc1ccc(NC(=O)CN2CCc3ccccc3C2)cc1F` was tested. Which Potency did it give?
The Potency was inconclusive: 15.8 µM [inhibitor, single point].

For `COc1ccccc1CN1CN(S(=O)(=O)c2ccccc2)c2nc3ccccc3nc21`, which Potency is on record?
Its Potency is “inactive”.

`COc1ccc(Nc2ccc(OC)cc2)cc1` was tested. Which Potency did it give?
Its Potency is “inactive”.

Which Potency does the source give for `O=C(/C=C/c1ccco1)Nc1cccc2cccnc12` here?
Its Potency is inconclusive: 12.6 µM [inhibitor, partial curve].

With `CSc1ccccc1NC(=O)c1noc2c1CCC2` as the compound, how does the Potency read?
The Potency was inconclusive: 56.2 µM [inhibitor, partial curve].

With `COc1cc2[nH]c3c(N4CCN(c5ccccn5)CC4)ncnc3c2cc1OC` as the compound, how does the Potency read?
Its Potency is inconclusive: 16.8 µM [inhibitor, partial curve].

`CSc1cccc(CN2CCC(CO)(Cc3ccccc3)CC2)c1` was tested. Which Potency did it give?
The Potency was “inactive”.

For `C#CCOCCOCCOCCNc1nc(N2CCN(C(=O)CCCCCCCCCCNC(=O)[C@H]([C@@H](C)CC)n3cc(CCCCCN)nn3)CC2)nc(N2CCN(C(=O)CCCCCCCCCCNC(=O)[C@@H]([C@H](C)O)n3cc(C)nn3)CC2)n1`, which Potency is on record?
The Potency was active: 56.2 µM.

`Cc1ccnc(NC(=O)Cc2c(F)cccc2Cl)c1` was tested. Which Potency did it give?
The Potency was inconclusive: 11.2 µM [inhibitor, full curve, poor fit].

For `Fc1ccccc1CN1CCC(Cc2ccccc2)CC1`, which Potency is on record?
Its Potency is inconclusive: 70.8 µM [inhibitor, single point].

For `Cc1cccnc1NC(=O)CCc1nnc2ccc(NCc3ccco3)nn12`, which Potency is on record?
Its Potency is “inactive”.

`O=C(Nc1ccc(Oc2cccnc2)cc1)C1CCN(Cc2ccc(F)cc2)CC1` was tested. Which Potency did it give?
The Potency was inconclusive: 89.1 µM [inhibitor, single point].

From PubChem BioAssay AID651768 (National Center for Advancing Translational Sciences (NCATS), 2012)
